Values from PubChem BioAssay AID1159578 (Peter MacCallum Cancer Centre, 2015).
Screen: 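Genome-wide hunt for genes controlling movement of lymphatic endothelial cells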 (primary screen). System: human lymphatic endothelial cells. Knock-down reagent: siRNA pool against human genes, 40 nM. Timing: 48 h after transfection. Read-out: 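High-content imaging of dye-stained cells in a scratch assay measures filled wound area and nuclei per well; duplicate means given as ratio to mock and robust z-score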. Reading the numbers: migration robust z-score: higher = faster migration into the scratch; nuclei per well: higher = more cells in the well. Hit rule: 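Pools averaging fewer than 3300 nuclei are never called; remaining pools count as changed when migration robust z lies outside -2 to 2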. Meaning of the calls: active = migration changed; inactive = no migration change, or too few cells.
This is one part, drawn at random, of about 18,000 reagents tested. Over the whole deposit, about 1,030 (5.7%) are marked active. 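Inactive calls also include pools with fewer than 3300 nuclei, whose migration was not assessed.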 Raw values vary from plate to plate and are shown uncorrected. Entries without a mark were called inactive. Not all columns of the deposit are shown.

Gene	PubChem SID	migration robust z-score	nuclei per well, duplicate mean
SIAH3 (siah E3 ubiquitin protein ligase family member 3)	SID255364683	0.07	5232
NOC2L (NOC2 like nucleolar associated transcriptional repressor)	SID255356696	0.36	5563
PMPCB (peptidase, mitochondrial processing subunit beta)	SID255354333	1.76	5746
ACY1 (aminoacylase 1)	SID255348169	0.36	3460
ANKFN1 (ankyrin repeat and fibronectin type III domain containing 1)	SID255363744	-0.25	5177
TUSC2 (tumor suppressor 2, mitochondrial calcium regulator)	SID255355759	0.64	5751
OR6K6 (olfactory receptor family 6 subfamily K member 6)	SID255362796	0.52	6845
KRTDAP (keratinocyte differentiation associated protein)	SID255365494	-0.85	4202
FOXD4 (forkhead box D4)	SID255349704	-0.24	6400
LACTB2 (lactamase beta 2)	SID255357485	1.17	4544
GNB5 (G protein subunit beta 5)	SID255355283	0.44	5488
ATP5MC1 (ATP synthase membrane subunit c locus 1)	SID255348466	0.81	3854
PDHA2 (pyruvate dehydrogenase E1 subunit alpha 2)	SID255351487	0.03	4386
MYCT1 (MYC target 1)	SID255360687	0.86	4522
DNAAF5 (dynein axonemal assembly factor 5)	SID255358268	2.23 (active)	7350
OR2T4 (olfactory receptor family 2 subfamily T member 4)	SID255362742	1.14	5246
MAGEL2 (MAGE family member L2)	SID255358082	1.02	6402
CLCNKB (chloride voltage-gated channel Kb)	SID255348957	-1.01	5022
ADGRD1 (adhesion G protein-coupled receptor D1)	SID255364670	2.12 (active)	5976
NUP107 (nucleoporin 107)	SID255359281	-0.52	5540
RPL24 (ribosomal protein L24)	SID255352182	0.13	4872
DOT1L (DOT1 like histone lysine methyltransferase)	SID255361365	-3.37 (active)	4440
HMHB1 (histocompatibility minor HB-1)	SID255359605	0.68	5818
ENY2 (ENY2 transcription and export complex 2 subunit)	SID255359184	2.25 (active)	6894
AP4S1 (adaptor related protein complex 4 subunit sigma 1)	SID255355636	0.8	5183
FBN3 (fibrillin 3)	SID255361382	-1.46	5352

Copied from the listing, 3 entries:
Gene	PubChem SID	migration robust z-score	nuclei per well, duplicate mean
MAGEL2 (MAGE family member L2)	SID255358082	1.02	6402
CLCNKB (chloride voltage-gated channel Kb)	SID255348957	-1.01	5022
ADGRD1 (adhesion G protein-coupled receptor D1)	SID255364670	2.12 (active)	5976

More records follow:
Gene	PubChem SID	migration robust z-score	nuclei per well, duplicate mean
ABCD2 (ATP binding cassette subfamily D member 2)	SID255348268	0.62	6088
SLC4A2	SID255352453	-0.86	3518
BRD8 (bromodomain containing 8)	SID255355430	-0.64	6046
ZNF554 (zinc finger protein 554)	SID255362294	-0.33	5863
HARS1 (histidyl-tRNA synthetase 1)	SID255350145	-0.37	6060
ILKAP (ILK associated serine/threonine phosphatase)	SID255360839	-0.31	5357
DUSP1 (dual specificity phosphatase 1)	SID255349393	0.65	4848
SLIT1 (slit guidance ligand 1)	SID255352510	0.17	5143
KBTBD7 (kelch repeat and BTB domain containing 7)	SID255361186	-0.66	4528
WRAP73 (WD repeat containing, antisense to TP73)	SID255357320	0.44	5922
KMT5C (lysine methyltransferase 5C)	SID255361503	0.05	4843
CDC50B (cell division cycle 50 P4-ATPase accessory subunit B)	SID255363723	1.64	5230
EDEM3 (ER degradation enhancing alpha-mannosidase like protein 3)	SID255360732	0.05	5978
